According to patent publication US20190144538A1 (TETRAGENETICS, published 2019):
No constants are given. Whether binding was seen depends on the method and setting. Some results given as binding are weak or reduced against the parent protein; the word gives no strength.

Target: human Kv1.3 protein with C-terminal FLAG and 10xHis tags (human) (UniProt P22001)
Assay: Kv1.3 ELISA

binding: binds
B1: 1A3 (Fc fusion, not shown: small tags and cut ends; a dimerising Fc or GST)
scFv (part 1 of 2): LDIQMTQSPSSVTASVGEKVTINCKSSQSVVSASNQKSYLNWYQQRPGQSPRLLIYYASTQELGIPDRFSGSGSTTDFTLTISSVQPEDAAVYYCQQAYSAPYNFGSGTRLEIK
scFv (part 2 of 2): QVQLQESGGGLVQPGGSLRLSCAASGFTFSINGMSWVRQAPGKEVEWVSSINSGGEITNYRDSVKGRFTISRDNVKNTLYLQMNSLKPEDTAFYHCVTGIVAYDYWGQGTQVTVSS
